Assay [1] concerns the target T1, His tagged MANF protein (His-MANF) (UniProt Q9CXI5).
T1 sequence: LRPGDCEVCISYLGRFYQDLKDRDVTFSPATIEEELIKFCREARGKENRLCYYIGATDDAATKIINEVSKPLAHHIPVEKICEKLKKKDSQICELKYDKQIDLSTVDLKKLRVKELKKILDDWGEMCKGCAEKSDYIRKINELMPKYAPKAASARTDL
The assay is described as follows: pull-down; in vitro binding assay: His-MANF recombinant protein mixed with glutathione beads conjugated with GST-ELAVL2 or its fragments in 500 ul NP40 buffer, 4 °C overnight, western blotting; the legend says MANF antibody pull-down; both purified. For orientation: Immunoblotting shows a protein as a band on a membrane.

Amino acid sequences for entries named in this document (tags omitted).
UniProt Q60899: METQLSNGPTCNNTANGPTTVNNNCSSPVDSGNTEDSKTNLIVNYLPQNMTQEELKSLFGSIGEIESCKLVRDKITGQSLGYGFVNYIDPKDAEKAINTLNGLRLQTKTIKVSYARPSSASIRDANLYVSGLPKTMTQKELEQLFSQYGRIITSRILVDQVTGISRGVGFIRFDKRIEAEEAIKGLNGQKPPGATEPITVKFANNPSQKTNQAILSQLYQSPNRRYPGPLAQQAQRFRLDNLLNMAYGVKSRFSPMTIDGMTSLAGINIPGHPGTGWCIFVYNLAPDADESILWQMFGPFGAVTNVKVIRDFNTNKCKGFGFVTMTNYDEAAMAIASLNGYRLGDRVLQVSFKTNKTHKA

For assay [2], the target named is ELAV like RNA-binding protein 2 (ELAVL2), endogenous (mouse (endogenous in WT mouse brain)) (UniProt Q60899). The assay is described as follows: co-IP; WT mouse brain lysate in NP-40 buffer (50 mM NaCl, 50 mM Tris-HCl pH8.0, 0.1% Triton X-100, 0.5% NP-40), 300 ug protein, ELAVL2 antibody overnight, protein A-agarose, western blotting; rabbit IgG as negative control.

No constants are given. Whether binding was seen depends on the method and setting. For some assays here: Binding seen in cells or lysates may run through a third protein. Some results given as binding are weak or reduced against the parent protein; the word gives no strength. For some assays here: Sequences can lack the tags named with a protein.

As for “GST-tagged full-length ELAVL2 protein (GST-ELAVL2) (from UniProt Q60899 1-360)”, in assay [1], the binding entry is “binds”.

B1: Mesencephalic astrocyte-derived neurotrophic factor (MANF), endogenous (protein, UniProt Q9CXI5 22-179)
chain: LRPGDCEVCISYLGRFYQDLKDRDVTFSPATIEEELIKFCREARGKENRLCYYIGATDDAATKIINEVSKPLAHHIPVEKICEKLKKKDSQICELKYDKQIDLSTVDLKKLRVKELKKILDDWGEMCKGCAEKSDYIRKINELMPKYAPKAASARTDL
For the molecule B1, in assay [2], the binding result is given as “binds”.

Values taken from article PMC11490049.
